The assay deals with Histamine H1 receptor (Homo sapiens, UniProt P35367). Kind of assay: Antagonist activity at H1 receptor in human HeLa cells assessed as inhibition of histamine-induced Ca2+ release by using fura-2AM-based fluorescence assay. Type of assay: functional, cell-based.

Amino acid sequences for entries named in this document (tags omitted).
UniProt P35367, whole entry: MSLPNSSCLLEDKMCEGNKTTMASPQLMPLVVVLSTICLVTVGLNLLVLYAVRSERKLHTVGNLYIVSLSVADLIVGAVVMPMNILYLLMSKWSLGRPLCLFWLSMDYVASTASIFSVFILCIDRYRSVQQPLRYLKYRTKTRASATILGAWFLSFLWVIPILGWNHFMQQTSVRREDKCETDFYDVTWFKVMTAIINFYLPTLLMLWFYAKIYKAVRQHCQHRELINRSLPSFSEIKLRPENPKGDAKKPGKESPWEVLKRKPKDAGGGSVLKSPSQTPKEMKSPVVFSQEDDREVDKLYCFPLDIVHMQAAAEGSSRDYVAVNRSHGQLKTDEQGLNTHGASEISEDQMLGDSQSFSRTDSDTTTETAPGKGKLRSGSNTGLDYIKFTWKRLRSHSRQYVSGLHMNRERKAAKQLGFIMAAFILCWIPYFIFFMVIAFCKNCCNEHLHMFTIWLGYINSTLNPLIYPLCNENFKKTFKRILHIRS

pIC50: −log10 of the molar value.

In the case of `CN(C)CC/C=C1/c2ccccc2Sc2ccc(Cl)cc21` [CHLORPROTHIXENE], where the note is “read-out: IC50”, the negative-log IC50 (pIC50) (as a rule, −log10 of the IC50, conventionally taken in molar units) is 9.00. Besides, where the note is “read-out: pIC50 (converted)”, the IC50 is 871 nM.
